Measured values as given in patent publication US8895549B2, “Aminoalcohol substituted 2,3-dihydroimidazo[1,2-c]quinazoline derivatives useful for treating hyper-proliferative disorders and diseases associated with angiogenesis” (Bayer Intellectual Property GmbH, priority 2010, dated 2014).
Structures can show the parent of a compound that is named as a salt. At least one structure is not confirmed: it was looked up by name or label, or the drawing left a doubt.

Sequences of proteins named here, by UniProt entry; tags and fusion partners are left off. A change or cut given only in a name is not applied to a line headed by its entry.
UniProt P42338: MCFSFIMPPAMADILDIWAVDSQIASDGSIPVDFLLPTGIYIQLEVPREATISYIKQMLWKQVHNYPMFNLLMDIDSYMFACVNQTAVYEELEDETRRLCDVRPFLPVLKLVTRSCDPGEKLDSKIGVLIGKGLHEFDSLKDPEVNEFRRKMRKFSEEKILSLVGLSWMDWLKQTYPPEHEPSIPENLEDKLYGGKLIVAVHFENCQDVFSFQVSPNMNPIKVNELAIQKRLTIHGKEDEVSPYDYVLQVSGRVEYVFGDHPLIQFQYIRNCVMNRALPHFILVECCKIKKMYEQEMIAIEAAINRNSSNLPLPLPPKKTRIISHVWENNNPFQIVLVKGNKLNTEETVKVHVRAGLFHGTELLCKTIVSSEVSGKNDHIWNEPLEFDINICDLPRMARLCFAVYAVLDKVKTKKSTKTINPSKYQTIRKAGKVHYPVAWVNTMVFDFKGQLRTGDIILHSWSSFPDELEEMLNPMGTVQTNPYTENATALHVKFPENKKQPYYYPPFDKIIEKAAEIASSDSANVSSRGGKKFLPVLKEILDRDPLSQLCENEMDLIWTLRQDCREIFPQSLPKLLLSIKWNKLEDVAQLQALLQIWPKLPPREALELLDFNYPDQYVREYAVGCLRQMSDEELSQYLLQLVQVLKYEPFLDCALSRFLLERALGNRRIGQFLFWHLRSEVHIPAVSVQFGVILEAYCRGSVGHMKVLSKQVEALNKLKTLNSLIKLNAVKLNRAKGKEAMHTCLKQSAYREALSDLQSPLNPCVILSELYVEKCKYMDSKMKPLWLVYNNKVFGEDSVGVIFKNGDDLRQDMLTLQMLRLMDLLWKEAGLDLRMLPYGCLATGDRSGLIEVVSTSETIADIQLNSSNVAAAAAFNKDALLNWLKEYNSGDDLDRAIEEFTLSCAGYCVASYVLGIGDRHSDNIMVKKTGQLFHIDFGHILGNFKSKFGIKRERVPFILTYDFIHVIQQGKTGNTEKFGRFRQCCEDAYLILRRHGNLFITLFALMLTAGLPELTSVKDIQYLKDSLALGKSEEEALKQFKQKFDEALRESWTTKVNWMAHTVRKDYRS

Target: PI3Kβ (complex of human p110β and human p85α) (Homo sapiens (Human), UniProt P42338)
Assay: PI3Kβ kinase assay (HTRF-based PI3K inhibition assay);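 also: Kinase-made PIP3 detected by HTRF, displacing biotinylated PIP3 tracer from a complex of Europium anti-GST antibody, GST-fused PH domain and Streptavidin-APC, read as Europium-to-APC energy transfer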
Format: biochemical
Conditions: ratio of beta IC50 to alpha IC50

**Q.** For `COc1c(OC[C@H](O)CN2CC3CCC(C2)O3)ccc2c1N=C(NC(=O)c1cnc(N)nc1)N1CCN=C21` [Example 28, 2-Amino-N-(8-{[(2R)-2-hydroxy-3-(8-oxa-3-azabicyclo[3.2.1]oct-3-yl)propyl]oxy}-7-methoxy-2,3-dihydroimidazo[1,2-c]quinazolin-5-yl)pyrimidine-5-carboxamide dihydrochloride], which “PI3K beta average IC50/PI3K alpha average IC50” value is on record?
**A.** 4.71
